Laboratory results taken from paper PMC10812545, “The Binding of HSPA8 and Mitochondrial ALDH2 Mediates Oxygen-Glucose Deprivation-Induced Fibroblast Senescence” (Antioxidants, 2023).
No constants are given. Whether binding was seen depends on the method and setting. Binding seen in cells or lysates may run through a third protein. Some results given as binding are weak or reduced against the parent protein; the word gives no strength.

Protein sequences, listed by entry. Tags and fused reporters are not part of them.
UniProt P63017: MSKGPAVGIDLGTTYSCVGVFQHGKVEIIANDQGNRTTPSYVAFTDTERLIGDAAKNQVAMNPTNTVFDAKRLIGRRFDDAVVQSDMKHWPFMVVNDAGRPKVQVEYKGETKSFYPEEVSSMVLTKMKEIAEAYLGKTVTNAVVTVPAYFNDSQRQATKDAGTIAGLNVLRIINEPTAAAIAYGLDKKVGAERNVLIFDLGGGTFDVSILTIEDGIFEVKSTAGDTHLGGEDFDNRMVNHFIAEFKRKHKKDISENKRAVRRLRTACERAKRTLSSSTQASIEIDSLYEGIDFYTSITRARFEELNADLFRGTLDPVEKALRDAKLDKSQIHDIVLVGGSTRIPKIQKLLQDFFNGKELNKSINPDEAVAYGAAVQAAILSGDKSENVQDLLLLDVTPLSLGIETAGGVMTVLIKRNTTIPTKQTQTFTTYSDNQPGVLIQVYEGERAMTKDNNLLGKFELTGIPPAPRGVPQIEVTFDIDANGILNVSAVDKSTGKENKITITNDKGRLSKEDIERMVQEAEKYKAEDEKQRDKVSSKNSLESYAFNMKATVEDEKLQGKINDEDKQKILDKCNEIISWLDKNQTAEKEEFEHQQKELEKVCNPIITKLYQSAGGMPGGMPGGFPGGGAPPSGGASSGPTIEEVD

Molecular target: Heat Shock 70-kDa Protein 8 (HSPA8) (mouse (endogenous in NIH3T3)) (UniProt P63017)
Experiment: co-IP; NIH3T3 cells (OGD 4 h; negative control siRNA or siHSPA8) immunoprecipitated using HSPA8 antibody (by the legend); bound proteins by Western blot

binding: binds
B1: Aldehyde dehydrogenase 2 (ALDH2) (enzyme, mouse (endogenous in NIH3T3), UniProt P47738 20-519, looked up)
chain: SAAATSAVPAPNHQPEVFCNQIFINNEWHDAVSRKTFPTVNPSTGEVICQVAEGNKEDVDKAVKAARAAFQLGSPWRRMDASDRGRLLYRLADLIERDRTYLAALETLDNGKPYVISYLVDLDMVLKCLRYYAGWADKYHGKTIPIDGDFFSYTRHEPVGVCGQIIPWNFPLLMQAWKLGPALATGNVVVMKVAEQTPLTALYVANLIKEAGFPPGVVNIVPGFGPTAGAAIASHEGVDKVAFTGSTEVGHLIQVAAGSSNLKRVTLELGGKSPNIIMSDADMDWAVEQAHFALFFNQGQCCCAGSRTFVQENVYDEFVERSVARAKSRVVGNPFDSRTEQGPQVDETQFKKILGYIKSGQQEGAKLLCGGGAAADRGYFIQPTVFGDVKDGMTIAKEEIFGPVMQILKFKTIEEVVGRANDSKYGLAAAVFTKDLDKANYLSQALQAGTVWINCYDVFGAQSPFGGYKMSGSGRELGEYGLQAYTEVKTVTVKVPQKNS
notes: Aldehyde dehydrogenase 2, mitochondrial, endogenous in the mouse fibroblast line NIH3T3; Seen as dimer and tetramer after DSS cross-linking; also called mitochondrial ALDH2; mitochondrial aldehyde dehydrogenase; source: endogenous, NIH3T3 lysate
